Data published in publication PMC12501038.
Results are given in words; binding and its absence hold for the method and conditions named. Binding seen in cells or lysates may run through a third protein. Some entries that bind do so weakly or less than the wild type. Each block holds one substance with its values, some of them ahead of it.

By UniProt entry, the sequences of proteins in these tests, tags left out. Where a name states a change or a piece, a line headed by the entry shows the natural chain unless it says otherwise. Chains listed by the source or under a name are the forms on record and can include a tag or linker. Residues count along the entry.
UniProt Q570Y9: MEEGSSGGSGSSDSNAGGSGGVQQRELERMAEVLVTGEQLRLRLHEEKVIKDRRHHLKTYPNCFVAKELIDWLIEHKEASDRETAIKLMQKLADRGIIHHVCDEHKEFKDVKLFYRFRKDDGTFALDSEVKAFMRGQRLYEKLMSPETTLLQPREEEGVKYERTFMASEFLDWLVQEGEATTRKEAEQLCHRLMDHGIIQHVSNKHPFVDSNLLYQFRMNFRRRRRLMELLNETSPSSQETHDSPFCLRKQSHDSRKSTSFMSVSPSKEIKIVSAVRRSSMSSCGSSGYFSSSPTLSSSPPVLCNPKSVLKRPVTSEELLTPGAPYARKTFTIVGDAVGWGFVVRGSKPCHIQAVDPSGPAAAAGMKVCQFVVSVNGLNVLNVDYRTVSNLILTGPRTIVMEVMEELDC
UniProt Q8TB45: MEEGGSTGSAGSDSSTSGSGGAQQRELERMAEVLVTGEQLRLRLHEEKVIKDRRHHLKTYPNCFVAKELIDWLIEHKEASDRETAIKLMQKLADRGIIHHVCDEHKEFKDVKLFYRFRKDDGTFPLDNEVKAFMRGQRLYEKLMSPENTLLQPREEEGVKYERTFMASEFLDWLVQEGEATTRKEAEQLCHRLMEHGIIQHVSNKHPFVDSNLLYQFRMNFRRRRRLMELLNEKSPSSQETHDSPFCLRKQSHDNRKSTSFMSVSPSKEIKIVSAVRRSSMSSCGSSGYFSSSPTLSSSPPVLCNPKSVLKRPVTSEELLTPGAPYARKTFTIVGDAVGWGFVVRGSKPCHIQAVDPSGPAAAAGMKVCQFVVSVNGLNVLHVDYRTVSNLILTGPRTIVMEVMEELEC
FLAG-tagged PDZ domain of DEPTOR: residues 330-407 of Q8TB45

Experiments:
[1] = molecular target: HUWE1 fragment F1 (1-1000) (UniProt Q7Z6Z7); assay: co-IP; HEK293 cells transfected with HUWE1 truncation constructs for 48 h, IP with anti-HA Ab, IB
[2] = molecular target: HUWE1 fragment F3 (1394-1733) (UniProt Q7Z6Z7); assay: as above
[3] = molecular target: HUWE1 fragment F5 (1000-2000) (UniProt Q7Z6Z7); assay: as above
[4] = molecular target: DEPTOR (endogenous, mouse lymphoma) (mouse (endogenous in lymphomas)) (UniProt Q570Y9); assay: co-IP; lymphomas from Deptor+/+;Pten+/- mice lysed, IP with anti-DEPTOR Ab (normal IgG as control), IB
FLAG-DEPTOR = FLAG-DEPTOR (UniProt Q8TB45); assay: co-IP; HEK293 cells transfected with indicated plasmids for 48 h, IP with FLAG beads, IB; in some panels with co-transfected HA-DEPTOR or after lentiviral shDEPTOR
FLAG-EGFR [5] = molecular target: FLAG-EGFR (UniProt P00533); assay: pull-down; in vitro binding assay: FLAG-EGFR on FLAG beads (from HEK293 shDEPTOR cells) incubated with lysates of HEK293 shDEPTOR cells expressing HA-HUWE1, without or with purified HA-DEPTOR, 4.5 h at 4 °C, washed four times with lysis buffer, IB; only the target purified
FLAG-EGFR [6] = molecular target: FLAG-EGFR (UniProt P00533); assay: co-IP; HEK293 cells transfected with indicated plasmids for 48 h, IP with FLAG beads, IB; in some panels with co-transfected HA-DEPTOR or after lentiviral shDEPTOR
[7] = molecular target: FLAG-tagged PDZ domain of DEPTOR (UniProt Q8TB45); assay: as above

- binding [1]: binds
- binding [2]: binds
- binding [3]: binds
Substance: DEPTOR (in HEK293 cells, Fig. 4D) (from UniProt Q8TB45 1-409)

- binding [4]: binds
Substance: EGFR (endogenous, mouse lymphoma) (from UniProt Q01279 25-1210) (receptor)

- binding (FLAG-DEPTOR): binds
Substance: EGFR (in HEK293 cells, Fig. 4A) (from UniProt P00533 25-1210) (receptor)

- binding (FLAG-EGFR [5]): binds
Substance: HA-HUWE1 (from UniProt Q7Z6Z7 1-4374) (enzyme)

- binding (FLAG-DEPTOR): binds
- binding (FLAG-EGFR [6]): binds
- binding [7]: binds
Substance: HUWE1 (endogenous, HEK293) (from UniProt Q7Z6Z7 1-4374) (enzyme)
